Assay results: patent publication US9980973B2, “Bicyclic heterocycle compounds and their uses in therapy” (ASTEX THERAPEUTICS LIMITED, priority 2012, dated 2018)
Where a name gives a salt, the structure may show the parent alone. Some results were stated once for a whole list of compounds, not compound by compound.

Amino acid sequences for entries named in this document (tags omitted). Residues count along the entry.
UniProt Q13490, 267-363: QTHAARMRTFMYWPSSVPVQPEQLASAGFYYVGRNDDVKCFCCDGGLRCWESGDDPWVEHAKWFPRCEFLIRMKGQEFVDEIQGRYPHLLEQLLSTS

Biological target: T1, BIR3 domain of human cIAP-1 (Homo sapiens, UniProt Q13490)
T1 construct: human cIAP-1 (residues 267-363) fused to a GST-tag; GST-tag (cleaved yes); made in house; host or cells: Escherichia coli
Assay: cIAP-1 in vitro competitive displacement binding assay (fluorescence polarization)
Conditions: or at least 50% inhibition of the activity at 0.1 μM; read-out: IC50 in the cIAP1 assay

CC(=O)N1CCN(C[C@H]2CN[C@H](C)CN2CC(=O)N2CC(C)(C)c3ncc(Cc4ccc(F)cc4)cc32)C(C)C1 (mixture of isomers) [Example 33, 2-[(2R,5R)-2-[(4-Acetyl-2-methylpiperazin-1-yl)methyl]-5-methylpiperazin-1-yl]-1-{6-[(4-fluorophenyl)methyl]-3,3-dimethyl-1H,2H,3H-pyrrolo[3,2-b]pyridin-1-yl}ethan-1-one dihydrochloride] was tested, and the IC50 was under 100 nM.

In the case of C[C@@H]1CN(CC(=O)N2CC(C)(C)c3ncc(Cc4ccc(F)cc4)cc32)[C@@H](CN2CCCCC2C(F)(F)F)CN1 (single isomer, unassigned) [Example 24, 1-{6-[(4-Fluorophenyl)methyl]-3,3-dimethyl-1H,2H,3H-pyrrolo[3,2-b]pyridin-1-yl}-2-[(2R,5R)-5-methyl-2-{[2-([R or S]trifluoromethyl)piperidin-1-yl]methyl}piperazin-1-yl]ethan-1-one hydrochloride], the IC50 is reported as under 100 nM.

With C[C@@H]1CN(CC(=O)N2CC(C)(C)c3ncc(Cc4ccc(F)cc4)cc32)[C@@H](CN2CCOCC2C(F)(F)F)CN1 (single isomer, unassigned) [Example 25, 1-{6-[(4-Fluorophenyl)methyl]-3,3-dimethyl-1H,2H,3H-pyrrolo[3,2-b]pyridin-1-yl}-2-[(2R,5R)-5-methyl-2-{[3-([R or S]trifluoromethyl)morpholin-4-yl]methyl}piperazin-1-yl]ethan-1-one hydrochloride] the IC50 was under 100 nM.

COCC1(C)COCCN1C[C@H]1CN[C@H](C)CN1CC(=O)N1CC(C)(C)c2ncc(Cc3ccc(F)cc3)cc21 (single isomer, unassigned) [Example 100, dihydrochloride] showed an IC50 of under 100 nM.

Work on CCCC(O)c1cnc2c(c1)N(C(=O)CN1C[C@@H](C)NC[C@@H]1CN1[C@H](C)COC[C@H]1C)CC2(C)C (single isomer, unassigned) [Example 101, 2-[(2R,5R)-2-{[(3R,5R)-3,5-Dimethylmorpholin-4-yl]methyl}-5-methylpiperazin-1-yl]-1-[6-(1-(R or S)-hydroxybutyl)-3,3-dimethyl-1H,2H,3H-pyrrolo[3,2-b]pyridin-1-yl]ethan-1-one dihydrochloride] yielded an IC50 of under 100 nM.

C[C@@H]1CN(CC(=O)N2CC(C)(C)c3ncc(C(O)c4cccc(F)c4F)cc32)[C@@H](CN2[C@H](C)COC[C@H]2C)CN1 (single isomer, unassigned) [Example 111, (R or S)-1-{6-[(2,3-Difluorophenyl)(hydroxy)meth-yl]-3,3-dimethyl-1H,2H,3H-pyrrolo[3,2-b]pyridin-1-yl}-2-[(2R,5R)-2-{[(3R,5R)-3,5-dimethylmorpholin-4-yl]methyl}-5-methylpiperazin-1-yl]ethan-1-one dihydrochloride] showed an IC50 of under 100 nM.

COC[C@@H]1COCCN1C[C@H]1CN[C@H](C)CN1CC(=O)N1CC(C)(C)c2ncc(Cc3ccc(F)cc3)cc21 [Example 1, 1-{6-[(4-Fluorophenyl)methyl]-3,3-dimethyl-1H,2H,3H-pyrrolo[3,2-b]pyridin-1-yl}-2-[(2R,5R)-2-{[(3R)-3-(methoxymethyl)morpholin-4-yl]methyl}-5-methylpiperazin-1-yl]ethan-1-one dihydrochloride] gave an IC50 of under 100 nM.

C[C@@H]1CN(CC(=O)N2CC(C)(C)c3ncc(Cc4ccc(F)cc4)cc32)[C@@H](CN2CCOC[C@H]2CO)CN1 [Example 2, 1-{6-[(4-Fluorophenyl)methyl]-3,3-dimethyl-1H,2H,3H-pyrrolo[3,2-b]pyridin-1-yl}-2-[(2R,5R)-2-{[(3R)-3-(hydroxymethyl)morpholin-4-yl]methyl}-5-methylpiperazin-1-yl]ethan-1-one dihydrochloride] was tested, and the IC50 was under 100 nM.

C[C@@H]1CN(CC(=O)N2CC(C)(C)c3ncc(Cc4ccc(F)cc4)cc32)[C@@H](CN2CCC(F)(F)CC2)CN1 [Example 4, 2-[(2R,5R)-2-[(4,4-Difluoropiperidin-1-yl)methyl]-5-methylpiperazin-1-yl]-1-{6-[(4-fluorophenyl)methyl]-3,3-dimethyl-1H,2H,3H-pyrrolo[3,2-b]pyridin-1-yl}ethan-1-one dihydrochloride] showed an IC50 of under 100 nM.

C[C@@H]1CN(CC(=O)N2CC(C)(C)c3ncc(Cc4ccc(F)cc4)cc32)[C@@H](CN2CCOCC2(C)C)CN1 [Example 5, 2-[(2R,5R)-2-[(3,3-Dimethylmorpholin-4-yl)methyl]-5-methylpiperazin-1-yl]-1-{6-[(4-fluorophenyl)methyl]-3,3-dimethyl-1H,2H,3H-pyrrolo[3,2-b]pyridin-1-yl}ethan-1-one dihydrochloride] showed an IC50 of under 100 nM.

With C[C@@H]1CN(CC(=O)N2CC(C)(C)c3ncc(Cc4ccc(F)cc4)cc32)[C@@H](CN2CCC(F)(F)C2)CN1 [Example 6, 2-[(2R,5R)-2-[(3,3-Difluoropyrrolidin-1-yl)methyl]-5-methylpiperazin-1-yl]-1-{6-[(4-fluorophenyl)methyl]-3,3-dimethyl-1H,2H,3H-pyrrolo[3,2-b]pyridin-1-yl}ethan-1-one dihydrochloride] the IC50 was under 100 nM.

Compound CC1CC(=O)CCN1C[C@H]1CN[C@H](C)CN1CC(=O)N1CC(C)(C)c2ncc(Cc3ccc(F)cc3)cc21 (stereo partly drawn) [Example 8, 1-{[(2R,5R)-1-(2-{6-[(4-Fluorophenyl)methyl]-3,3-dimethyl-1H,2H,3H-pyrrolo[3,2-b]pyridin-1-yl}-2-oxoethyl)-5-methylpiperazin-2-yl]methyl}-2-methylpiperidin-4-one dihydrochloride] has an IC50 of under 100 nM.

With CC1CS(=O)(=O)CCN1C[C@H]1CN[C@H](C)CN1CC(=O)N1CC(C)(C)c2ncc(Cc3ccc(F)cc3)cc21 (stereo partly drawn) [Example 9, 4-{[(2R,5R)-1-(2-{6-[(4-Fluorophenyl)methyl]-3,3-dimethyl-1H,2H,3H-pyrrolo[3,2-b]pyridin-1-yl}-2-oxoethyl)-5-methylpiperazin-2-yl]methyl}-3-methyl-1λ^6,4-thiomorpholine-1,1-dione dihydrochloride] the IC50 was under 100 nM.

Compound C[C@@H]1CN(CC(=O)N2CC(C)(C)c3ncc(Cc4ccc(F)cc4)cc32)[C@@H](CN2CCC[C@H]2CO)CN1 [Example 12, 1-{6-[(4-Fluorophenyl)methyl]-3,3-dimethyl-1H,2H,3H-pyrrolo[3,2-b]pyridin-1-yl}-2-[(2R,5R)-2-{[(2S)-2-(hydroxymethyl)pyrrolidin-1-yl]methyl}-5-methylpiperazin-1-yl]ethan-1-one dihydrochloride] has an IC50 of under 100 nM.

C[C@@H]1CN(CC(=O)N2CC(C)(C)c3ncc(Cc4ccc(F)cc4)cc32)[C@@H](CN2C3CCC2COC3)CN1 [Example 17, 1-{6-[(4-Fluorophenyl)methyl]-3,3-dimethyl-1H,2H,3H-pyrrolo[3,2-b]pyridin-1-yl}-2-[(2R,5R)-5-methyl-2-{3-oxa-8-azabicyclo[3.2.1]octan-8-ylmethyl}piperazin-1-yl]ethan-1-one dihydrochloride] was tested, and the IC50 was under 100 nM.

Work on C[C@@H]1CN(CC(=O)N2CC(C)(C)c3ncc(Cc4ccc(F)cc4)cc32)[C@@H](CN2CC3CCC(C2)O3)CN1 [Example 18, 1-{6-[(4-Fluorophenyl)methyl]-3,3-dimethyl-1H,2H,3H-pyrrolo[3,2-b]pyridin-1-yl}-2-[(2R,5R)-5-methyl-2-{8-oxa-3-azabicyclo[3.2.1]octan-3-ylmethyl}piperazin-1-yl]ethan-1-one dihydrochloride] yielded an IC50 of under 100 nM.

C[C@@H]1CN(CC(=O)N2CC(C)(C)c3ncc(Cc4ccc(F)cc4)cc32)[C@@H](CN2CCOC[C@H]2CF)CN1 [Example 19, 2-[(2R,5R)-2-{[(3S)-3-(Fluoromethyl)morpholin-4-yl]methyl}-5-methylpiperazin-1-yl]-1-{6-[(4-fluorophenyl)methyl]-3,3-dimethyl-1H,2H,3H-pyrrolo[3,2-b]pyridin-1-yl}ethan-1-one dihydrochloride] gave an IC50 of under 100 nM.

Work on C[C@@H]1CN(CC(=O)N2CC(C)(C)c3ncc(Cc4ccc(F)cc4)cc32)[C@@H](CN2C[C@@H](C)N[C@@H](C)C2)CN1 [Example 22, 2-[(2R,5R)-2-{[(3R,5S)-3,5-Dimethylpiperazin-1-yl]methyl}-5-methylpiperazin-1-yl]-1-{6-[(4-fluorophenyl)methyl]-3,3-dimethyl-1H,2H,3H-pyrrolo[3,2-b]pyridin-1-yl}ethan-1-one dihydrochloride] yielded an IC50 of under 100 nM.

Compound C[C@@H]1CN(CC(=O)N2CC(C)(C)c3ncc(Cc4ccc(F)cc4)cc32)[C@@H](CN2CCC(O)CC2)CN1 [Example 23, 1-{6-[(4-Fluorophenyl)methyl]-3,3-dimethyl-1H,2H,3H-pyrrolo[3,2-b]pyridin-1-yl}-2-[(2R,5R)-2-[(4-hydroxypiperidin-1-yl)methyl]-5-methylpiperazin-1-yl]ethan-1-one dihydrochloride] has an IC50 of under 100 nM.

For C[C@@H]1CN(CC(=O)N2CC(C)(C)c3ncc(Cc4ccc(F)cc4)cc32)[C@@H](CN2CCOCC(F)(F)C2)CN1 [Example 28, 2-[(2R,5R)-2-[(6,6-Difluoro-1,4-oxazepan-4-yl)methyl]-5-methylpiperazin-1-yl]-1-{6-[(4-fluorophenyl)methyl]-3,3-dimethyl-1H,2H,3H-pyrrolo[3,2-b]pyridin-1-yl}ethan-1-one dihydrochloride], the IC50 was under 100 nM.

For CC1N(C[C@H]2CN[C@H](C)CN2CC(=O)N2CC(C)(C)c3ncc(Cc4ccc(F)cc4)cc32)CCOC1(C)C (stereo partly drawn) [Example 32, 1-{6-[(4-Fluorophenyl)methyl]-3,3-dimethyl-1H,2H,3H-pyrrolo[3,2-b]pyridin-1-yl}-2-[(2R,5R)-5-methyl-2-[(2,2,3-trimethylmorpholin-4-yl)methyl]piperazin-1-yl]ethan-1-one dihydrochloride], the IC50 was under 100 nM.

Compound C[C@@H]1CN(CC(=O)N2CC(C)(C)c3ncc(Cc4ccc(F)cc4)cc32)[C@@H](CN2CCC[C@H]2C(F)(F)F)CN1 [Example 36, 1-{6-[(4-Fluorophenyl)methyl]-3,3-dimethyl-1H,2H,3H-pyrrolo[3,2-b]pyridin-1-yl}-2-[(2R,5R)-5-methyl-2-{[(2S)-2-(trifluoromethyl)pyrrolidin-1-yl]methyl}piperazin-1-yl]ethan-1-one] has an IC50 of under 100 nM.
